# Source: PubChem BioAssay AID1053208 (Peter MacCallum Cancer Centre, 2014)
# Assay: 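Find knock-downs that sensitise mouse osteosarcoma cells to doxorubicin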 (primary screen)
# Cells: mouse osteosarcoma cells, early-passage culture from an engineered mouse model of fibroblastic bone tumour
# Reagent: siRNA pool against mouse genes, 40 nM
# Timing: about 120 h (48 h before drug, then 72 h with drug)
# Challenge: doxorubicin 100 nM for 72 h, roughly 30-40% inhibitory dose
# Read-out: 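Viability read as ATP luminescence after 72 h of 100 nM doxorubicin or none, duplicate wells averaged, scaled to non-targeting siRNA, then expressed as robust z-scores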
# Reading the numbers: viability z-score with doxorubicin: higher = more viable cells under doxorubicin; viability z-score without drug: higher = more viable cells with knock-down alone
# Rule for the call: 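a pool counts as active when its viability z-score with doxorubicin is -2 or below and its z-score without drug lies between -2 and 2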
# In all, the deposit lists about 17,000 reagents; this is a random part of them. Over the whole deposit, 788 (4.7%) got an active call. 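Calls rest on z-score classes alone; an extra cut-off of viability at most 70% of control was not applied to them.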 Not all columns of the deposit are shown.
gene,combined z-score class,viability z-score with doxorubicin,viability z-score without drug,Call
Clec18a,no change with or without drug,0.34,-0.51,inactive
Ogfod1,no change with or without drug,-1.8,-0.51,inactive
Tfrc,no change with or without drug,-1.35,0.17,inactive
Rnd1,no change with or without drug,0.45,0.17,inactive
Clptm1l,no change with or without drug,0.45,-0.34,inactive
Papln,no change with or without drug,-0.67,-0.51,inactive
Rgn,no change with or without drug,0.56,-0.51,inactive
Numb,no change with or without drug,0,0,inactive
Golph3l,low cell count with doxorubicin only,-2.14,1.01,active
Or8g37,no change with or without drug,-0.56,-0.51,inactive
Mllt1,no change with or without drug,0.11,0.17,inactive
Glp1r,no change with or without drug,-0.9,0.51,inactive
Zzz3,high cell count with doxorubicin only,2.02,0.51,inactive
Fam91a1,no change with or without drug,0.22,0.84,inactive
Sec23b,no change with or without drug,1.12,0.84,inactive
Dffb,no change with or without drug,0.67,-0.17,inactive
Stag1,no change with or without drug,1.12,1.18,inactive
A2m,no change with or without drug,-0.9,-1.85,inactive
Slc22a15,no change with or without drug,-0.11,1.85,inactive
4921536K21Rik,low cell count with doxorubicin only,-2.36,0.34,active

4 entries from above, arranged by “viability z-score with doxorubicin”, lowest first.
gene,combined z-score class,viability z-score with doxorubicin,viability z-score without drug,Call
Glp1r,no change with or without drug,-0.9,0.51,inactive
Mllt1,no change with or without drug,0.11,0.17,inactive
Fam91a1,no change with or without drug,0.22,0.84,inactive
Zzz3,high cell count with doxorubicin only,2.02,0.51,inactive

Next reagents follow.
gene,combined z-score class,viability z-score with doxorubicin,viability z-score without drug,Call
Mogs,no change with or without drug,-1.69,-0.51,inactive
CIPP,no change with or without drug,-0.67,-0.34,inactive
Odf1,no change with or without drug,0.79,0.51,inactive
Cfap410,low cell count with doxorubicin only,-2.47,0.84,active
C9,no change with or without drug,-0.45,1.35,inactive
Slc28a2,no change with or without drug,-0.22,1.18,inactive
Stard6,no change with or without drug,1.12,1.52,inactive
4732465J09RIK,no change with or without drug,-0.22,0.34,inactive
Slc16a6,low cell count with doxorubicin only,-3.04,-0.84,active
Catsperb,no change with or without drug,-1.12,-0.34,inactive
Abtb1,no change with or without drug,0.9,1.52,inactive
Klhl36,no change with or without drug,1.91,1.85,inactive
Schip1,no change with or without drug,-0.11,1.52,inactive
Nop14,no change with or without drug,-1.24,0.51,inactive
